TEAD-luciferase reporter activity data for 17 compounds are collected here from the supplement of paper PMC10735217.

SMILES strings stand for the structures. This is one part of the list. Repeats in this data set agree poorly, so a single value says little.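 The human kidney-derived cells carry a stably integrated construct of eight TEAD-binding elements driving luciferase, read by luminescence in a drug-repurposing library screen. A compound counts as a hit when its signal is more than five robust Z scores above the plate mean.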

This assay concerns HEK293A TEAD-LUC reporter. The assay is described as follows: TEAD-luciferase reporter activity (YAP activation), robust Z score vs plate; higher = stronger YAP/TEAD activation. The following applies: 24 h.

For `NC(=O)Cn1c(=O)cc(CCN2CCN(c3nccc4sccc34)CC2)c2ccc(F)cc21`, the TEAD-luciferase reporter activity was inactive: 4.63 (compound concentration: 200 nM), inactive: -1.05 (compound concentration: 2 uM) and inactive: 2.17 (compound concentration: 10 uM).

On to `S=C(NCc1ccc2c(c1)OCO2)N1CCN(c2ncnc3c2oc2ccccc23)CC1` [Amuvatinib], for which, for the setting “compound concentration: 2 uM”, the TEAD-luciferase reporter activity is inactive: -0.696.

On to `S=C(NCc1ccc2c(c1)OCO2)N1CCN(c2ncnc3c2oc2ccccc23)CC1` [Amuvatinib (MP-470)], for which the TEAD-luciferase reporter activity by setting is: (compound concentration: 200 nM) inactive: 0.202; (compound concentration: 10 uM) inactive: -0.135.

`C[C@@H](O)[C@H]1C(=O)N2C(C(=O)O)=C(SCCNC=N)C[C@H]12`: the TEAD-luciferase reporter activity was inactive: -2.21 (compound concentration: 200 nM) and inactive: 2.59 (compound concentration: 10 uM).

Regarding `C[C@@H](O)[C@H]1C(=O)N2C(C(=O)O)=C(SCCNC=N)C[C@H]12` [imipenem], the TEAD-luciferase reporter activity (compound concentration: 2 uM) was inactive: 1.84.

Turning to `Cc1coc2ccccc2c1=O`, the TEAD-luciferase reporter activity is inactive: -1.53 (compound concentration: 200 nM), inactive: -0.382 (compound concentration: 2 uM) and inactive: 4.22 (compound concentration: 10 uM).

Consider `C[C@]1(C(=O)[O-])CSC(c2ncccc2O)=N1`, for which the TEAD-luciferase reporter activity is, setting by setting: (compound concentration: 200 nM) inactive: 1.46; (compound concentration: 2 uM) inactive: 0.321; (compound concentration: 10 uM) inactive: -1.21.

On to `COc1ccc(CC(=O)O)cc1Oc1ccc(NC(=O)C(C)(C)C)cc1CSC(C)(C)C`, for which the TEAD-luciferase reporter activity reads like this: (compound concentration: 200 nM) inactive: 0.376; (compound concentration: 2 uM) inactive: 1.47; (compound concentration: 10 uM) inactive: 0.553.

With `O=C(CCCNc1ncc(C(F)(F)F)cc1Cl)NNS(=O)(=O)c1ccc(CNC(=O)c2ccc(Cl)cc2)s1`, the TEAD-luciferase reporter activity was inactive: 2.18 (compound concentration: 200 nM), inactive: -2.46 (compound concentration: 2 uM) and inactive: -1.49 (compound concentration: 10 uM).

Regarding `CCCNC(=O)c1nnc2c(-c3c(F)cccc3OC)cccc2c1N`, the TEAD-luciferase reporter activity (compound concentration: 200 nM) is inactive: 0.174, the TEAD-luciferase reporter activity (compound concentration: 2 uM) was inactive: 0.874 and the TEAD-luciferase reporter activity (compound concentration: 10 uM) was inactive: -1.33.

On to `C=CCN1Cc2ccccc2-c2ccccc2C1`, for which the TEAD-luciferase reporter activity is inactive: -0.243 (compound concentration: 200 nM), inactive: 0.156 (compound concentration: 2 uM) and inactive: 3.66 (compound concentration: 10 uM).

For the compound `CCCC(=O)OCC(=O)Nc1nc(-c2ccc(OC)cc2)cs1`, the TEAD-luciferase reporter activity runs as follows: (compound concentration: 200 nM) inactive: -0.361; (compound concentration: 2 uM) inactive: 3.15; (compound concentration: 10 uM) active: 5.08.

For the compound `CCCCCCc1ccc(N=C2SCCS2)cc1`, the TEAD-luciferase reporter activity by setting is: (compound concentration: 200 nM) inactive: -1.16; (compound concentration: 2 uM) inactive: 0.0174; (compound concentration: 10 uM) inactive: 3.51.

As to `CC1CC(ON)CCN1` (stereo not given), the TEAD-luciferase reporter activity (compound concentration: 200 nM) was inactive: -0.775, the TEAD-luciferase reporter activity (compound concentration: 2 uM) was inactive: -0.0634 and the TEAD-luciferase reporter activity (compound concentration: 10 uM) is inactive: 1.5.

Turning to `COc1cc2c(CCN3CCN(c4cccc(Cl)c4C)CC3)nn(Cc3cnc[nH]3)c2cc1OC`, the TEAD-luciferase reporter activity reads like this: (compound concentration: 200 nM) inactive: -1.44; (compound concentration: 2 uM) inactive: -1.98; (compound concentration: 10 uM) inactive: 0.0192.

In the case of `O=C(O)CN(CC(=O)O)CC(=O)Nc1ccc(Cl)cc1C(=O)c1ccccc1`, the TEAD-luciferase reporter activity was inactive: 2.9 (compound concentration: 200 nM), inactive: 2.29 (compound concentration: 2 uM) and inactive: -1.67 (compound concentration: 10 uM).

Take `CCCc1nc(C(C)(C)O)c(C(=O)OCc2oc(=O)oc2C)n1Cc1ccc(-c2ccccc2-c2nnn[nH]2)cc1` [Olmesartan medoxomil]: the TEAD-luciferase reporter activity was inactive: -2.34 (compound concentration: 200 nM), inactive: -1.94 (compound concentration: 2 uM) and inactive: 2.77 (compound concentration: 10 uM).
